Article PMC11831439
Results are given in words; binding and its absence hold for the method and conditions named. In cells and extracts the contact can be indirect. Some binding calls cover weakened binding; strength is not graded here.

Sequences of proteins named here, by UniProt entry; tags and fusion partners are left off. Residues count along the entry.
UniProt Q9NZQ7, residues 19-290: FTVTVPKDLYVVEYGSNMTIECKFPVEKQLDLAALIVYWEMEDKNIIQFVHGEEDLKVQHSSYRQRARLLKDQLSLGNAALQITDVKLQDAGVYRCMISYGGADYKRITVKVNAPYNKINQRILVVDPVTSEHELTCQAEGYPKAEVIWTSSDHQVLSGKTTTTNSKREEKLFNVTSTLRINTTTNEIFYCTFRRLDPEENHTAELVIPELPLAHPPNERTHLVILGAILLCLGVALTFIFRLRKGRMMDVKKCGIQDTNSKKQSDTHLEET
UniProt Q92905: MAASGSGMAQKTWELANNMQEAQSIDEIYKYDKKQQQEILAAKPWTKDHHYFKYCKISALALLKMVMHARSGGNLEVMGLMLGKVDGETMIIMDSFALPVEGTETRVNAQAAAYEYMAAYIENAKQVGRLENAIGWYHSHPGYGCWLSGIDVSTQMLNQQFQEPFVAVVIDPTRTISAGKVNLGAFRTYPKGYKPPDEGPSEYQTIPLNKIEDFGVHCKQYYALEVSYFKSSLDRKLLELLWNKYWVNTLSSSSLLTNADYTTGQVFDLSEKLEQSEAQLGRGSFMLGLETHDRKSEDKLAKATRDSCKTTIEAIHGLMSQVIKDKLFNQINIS

Target: PD-L1 (programmed death-ligand 1), in the immunoprecipitation with CSN5 (UniProt Q9NZQ7)
Assay: co-IP; immunoprecipitation from cell lysate with immunoblot; cells and bait not told for this experiment (general IP method: IgG or PD-L1 antibody overnight at 4 °C, protein A/G beads)

Substance: CSN5 (from UniProt Q92905 1-334) (enzyme)
- binding: binds
